The list shows a part of the results.
Key:
Experiment in all cases: glycan array binding signal (z-score within array); higher = stronger binding
Conditions in all cases: glycan notation: IUPAC condensed, linker removed
[1] = molecular target: Neu5Ac(a2-3)Gal(b1-4)GlcNAc(b1-3)Gal(b1-4)GlcNAc(b1-2)Man(a1-3)[Neu5Ac(a2-3)Gal(b1-4)GlcNAc(b1-3)Gal(b1-4)GlcNAc(b1-2)Man(a1-6)]Man(b1-4)GlcNAc(b1-4)GlcNAc
In short: (§1)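 Glycan array data were curated from 3228 arrays in the Consortium for Functional Glycomics database and kept only where the protein sequence was available. Glycan names were converted to IUPAC-condensed notation, and columns mapping to the same glycan were averaged. The binding signal is a within-array Z-score, averaged across arrays of the same protein sequence at different concentrations or buffers and across linkers. Negative Z-scores can be read as non-binding.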

[2] = molecular target: Neu5Ac(a2-3)Gal(b1-4)GlcNAc(b1-3)Gal(b1-4)GlcNAc(b1-3)Gal(b1-4)GlcNAc
In short: as §1

[3] = molecular target: Neu5Ac(a2-3)Gal(b1-4)GlcNAc(b1-3)Gal(b1-4)GlcNAc(b1-3)Gal(b1-4)GlcNAc(b1-2)Man(a1-3)[Neu5Ac(a2-3)Gal(b1-4)GlcNAc(b1-3)Gal(b1-4)GlcNAc(b1-3)Gal(b1-4)GlcNAc(b1-2)Man(a1-6)]GalNAc
In short: as §1

[4] = molecular target: Neu5Ac(a2-3)Gal(b1-4)GlcNAc(b1-3)Gal(b1-4)GlcNAc(b1-3)GalNAc
In short: as §1

[5] = molecular target: Neu5Ac(a2-3)Gal(b1-4)GlcNAc(b1-3)Gal(b1-4)GlcNAc(b1-3)[Neu5Ac(a2-3)Gal(b1-4)GlcNAc(b1-3)Gal(b1-4)GlcNAc(b1-6)]GalNAc
In short: as §1

[6] = molecular target: Neu5Ac(a2-3)Gal(b1-4)GlcNAc(b1-3)Gal(b1-4)GlcNAc(b1-6)[Gal(b1-3)]GalNAc
In short: as §1

[7] = molecular target: Neu5Ac(a2-3)Gal(b1-4)GlcNAc(b1-3)Gal(b1-4)[Fuc(a1-3)]GlcNAc
In short: as §1

[8] = molecular target: Neu5Ac(a2-3)Gal(b1-4)GlcNAc(b1-3)GalNAc
In short: as §1

[9] = molecular target: Neu5Ac(a2-3)Gal(b1-4)GlcNAc(b1-3)[Neu5Ac(a2-3)Gal(b1-4)GlcNAc(b1-6)]GalNAc
In short: as §1

[10] = molecular target: Neu5Ac(a2-3)Gal(b1-4)GlcNAc(b1-6)GalNAc
In short: as §1

[11] = molecular target: Neu5Ac(a2-3)Gal(b1-4)GlcNAc(b1-6)[Gal(b1-3)]GalNAc
In short: as §1

[12] = molecular target: Neu5Ac(a2-3)Gal(b1-4)GlcNAc(b1-6)[Neu5Ac(a2-3)Gal(b1-3)]GalNAc
In short: as §1

[13] = molecular target: Neu5Ac(a2-3)Gal(b1-4)GlcNAc6S
In short: as §1

[14] = molecular target: Neu5Ac(a2-3)Gal(b1-4)[Fuc(a1-3)]GlcNAc
In short: as §1

[15] = molecular target: Neu5Ac(a2-3)Gal(b1-4)[Fuc(a1-3)]GlcNAc(b1-2)Man
In short: as §1

[16] = molecular target: Neu5Ac(a2-3)Gal(b1-4)[Fuc(a1-3)]GlcNAc(b1-3)Gal
In short: as §1

[17] = molecular target: Neu5Ac(a2-3)Gal(b1-4)[Fuc(a1-3)]GlcNAc(b1-3)Gal(b1-4)GlcNAc
In short: as §1

[18] = molecular target: Neu5Ac(a2-3)Gal(b1-4)[Fuc(a1-3)]GlcNAc(b1-3)Gal(b1-4)[Fuc(a1-3)]GlcNAc(b1-3)Gal(b1-4)[Fuc(a1-3)]GlcNAc
In short: as §1

[19] = molecular target: Neu5Ac(a2-3)Gal(b1-4)[Fuc(a1-3)]GlcNAc(b1-3)GalNAc
In short: as §1

[20] = molecular target: Neu5Ac(a2-3)Gal(b1-4)[Fuc(a1-3)]GlcNAc(b1-6)[Gal(b1-3)]GalNAc
In short: as §1

[21] = molecular target: Neu5Ac(a2-3)Gal(b1-4)[Fuc(a1-3)]GlcNAc(b1-6)[Neu5Ac(a2-3)Gal(b1-3)]GalNAc
In short: as §1

[22] = molecular target: Neu5Ac(a2-3)Gal(b1-4)[Fuc(a1-3)]GlcNAc6S
In short: as §1

[23] = molecular target: Neu5Ac(a2-3)Gal6S(b1-4)GlcNAc
In short: as §1

[24] = molecular target: Neu5Ac(a2-3)Gal6S(b1-4)[Fuc(a1-3)]GlcNAc
In short: as §1

[25] = molecular target: Neu5Ac(a2-3)GalNAc
In short: as §1

[26] = molecular target: Neu5Ac(a2-3)GalNAc(b1-4)GlcNAc
In short: as §1

[27] = molecular target: Neu5Ac(a2-3)[GalNAc(b1-4)]Gal(b1-4)Glc
In short: as §1

[28] = molecular target: Neu5Ac(a2-3)[GalNAc(b1-4)]Gal(b1-4)GlcNAc
In short: as §1

[29] = molecular target: Neu5Ac(a2-3)[GalNAc(b1-4)]Gal(b1-4)GlcNAc(b1-3)GalNAc
In short: as §1

[30] = molecular target: Neu5Ac(a2-3)[Neu5Ac(a2-6)]GalNAc
In short: as §1

[31] = molecular target: Neu5Ac(a2-6)Gal
In short: as §1

[32] = molecular target: Neu5Ac(a2-6)Gal(b1-3)GlcNAc(b1-3)[Gal(b1-4)GlcNAc(b1-6)]Gal(b1-4)Glc
In short: as §1

[33] = molecular target: Neu5Ac(a2-6)Gal(b1-4)Glc
In short: as §1

[34] = molecular target: Neu5Ac(a2-6)Gal(b1-4)GlcNAc
In short: as §1

[35] = molecular target: Neu5Ac(a2-6)Gal(b1-4)GlcNAc(b1-2)Man
In short: as §1

[36] = molecular target: Neu5Ac(a2-6)Gal(b1-4)GlcNAc(b1-2)Man(a1-3)Man(b1-4)GlcNAc(b1-4)GlcNAc
In short: as §1

[37] = molecular target: Neu5Ac(a2-6)Gal(b1-4)GlcNAc(b1-2)Man(a1-3)[Gal(b1-4)GlcNAc(b1-2)Man(a1-6)]Man(b1-4)GlcNAc(b1-4)GlcNAc
In short: as §1

[38] = molecular target: Neu5Ac(a2-6)Gal(b1-4)GlcNAc(b1-2)Man(a1-3)[GlcNAc(b1-2)Man(a1-6)]Man(b1-4)GlcNAc(b1-4)GlcNAc
In short: as §1

B1: SabA (Helicobacter pylori) (protein)
chain: MGSSHHHHHHSSGLVPRGSHMENLYFQGEDNGFFVSAGYQIGEAVQMVKNTGELKNLNEKYEQLSQYLNQVASLKQSIQNANNIELVNSSLNYLKSFTNNNYNSTTQSPIFNAVQAVITSVLGFWSLYAGNYFTFFVGKKVGDSGQPASVQGNPPFKTIIENCSGIENCAMDQTTYDKMKKLAEDLQAAQTNSATKGNNLCALSGCAATDSTSNPPNSTVSNALNLAQQLMDLIANTKTAMMWKNIVISGVSNTSGAITSTNYPTQYAVFNNIKAMIPILQQAVTLSQSNHTLSASLQAQATGSQTNPKFAKDIYTFAQNQKQVISYAQDIFNLFNSIPAEQYKYLEKAYLKIPNAGSTPTNPYRQVVNLNQEVQTIKNNVSYYGNRVDAALSVARDVYNLKSNQAEIVTAYNDAKTLSEEISKLPHNQVNTKDIVTLPYDKNAPAAGQSNYQINPEQQSNLNQALAAMSNNPFKKVGMISSQNNNGA
- glycan array binding signal (z-score) [1]: -0.729
- glycan array binding signal (z-score) [2]: 0.051
- glycan array binding signal (z-score) [3]: 1.25
- glycan array binding signal (z-score) [4]: -0.287
- glycan array binding signal (z-score) [5]: -0.187
- glycan array binding signal (z-score) [6]: -1.37
- glycan array binding signal (z-score) [7]: -0.156
- glycan array binding signal (z-score) [8]: -0.045
- glycan array binding signal (z-score) [9]: -0.509
- glycan array binding signal (z-score) [10]: -0.414
- glycan array binding signal (z-score) [11]: -0.438
- glycan array binding signal (z-score) [12]: -0.735
- glycan array binding signal (z-score) [13]: 0.311
- glycan array binding signal (z-score) [14]: -0.702
- glycan array binding signal (z-score) [15]: -0.806
- glycan array binding signal (z-score) [16]: 0.06
- glycan array binding signal (z-score) [17]: 0.139
- glycan array binding signal (z-score) [18]: -0.257
- glycan array binding signal (z-score) [19]: 1.3
- glycan array binding signal (z-score) [20]: 0.002
- glycan array binding signal (z-score) [21]: 0.408
- glycan array binding signal (z-score) [22]: -0.545
- glycan array binding signal (z-score) [23]: 0.251
- glycan array binding signal (z-score) [24]: -0.913
- glycan array binding signal (z-score) [25]: 0.507
- glycan array binding signal (z-score) [26]: -0.739
- glycan array binding signal (z-score) [27]: -0.8
- glycan array binding signal (z-score) [28]: -0.949
- glycan array binding signal (z-score) [29]: 0.507
- glycan array binding signal (z-score) [30]: -0.38
- glycan array binding signal (z-score) [31]: 0.027
- glycan array binding signal (z-score) [32]: -0.762
- glycan array binding signal (z-score) [33]: -0.048
- glycan array binding signal (z-score) [34]: -0.341
- glycan array binding signal (z-score) [35]: -0.826
- glycan array binding signal (z-score) [36]: -0.111
- glycan array binding signal (z-score) [37]: -0.079
- glycan array binding signal (z-score) [38]: -0.593

Source: the supplement of paper PMC8728848
